Results published in PMC4759862.
Results are given in words; binding and its absence hold for the method and conditions named. Binding seen in cells or lysates may run through a third protein. Some entries that bind do so weakly or less than the wild type. For part of these data: Sequences can lack the tags named with a protein. One block for each binder: values may come before it.

Columns and labels:
[1] = biological target: APP695myc (myc-tagged amyloid precursor protein, APP695) (human) (UniProt P05067); experiment: co-IP; HEK-293T cells co-transfected with meprin β and APP695myc; NP-40 lysis buffer; 200 μg lysate with protein G sepharose and 9E10 (anti-myc) or polyclonal anti-meprin β antibody over night; Western blot
[2] = biological target: APP695myc (myc-tagged amyloid precursor protein, APP695) (human) (UniProt P05067); experiment: condition: only lysates of separately transfected cells mixed post-lysis; co-IP; control: lysates of cells separately expressing APP (L1) or meprin β (L2) mixed post-lysis, then precipitated with 9E10 or anti-meprin β antibody
[3] = biological target: APP695 CT split GFP11 (human) (UniProt P05067); experiment: split reporter; split GFP: HEK-293T cells co-transfected with APP695 CT split GFP11 and meprin β CT split GFP1-10; fixed 24 h post transfection, confocal microscopy with organelle markers (PDI, GM130, EEA1)

binding [1]: binds
binding [2]: no binding
B1: meprin β (enzyme, UniProt Q16820 62-701)
chain: NSIIGEKYRWPHTIPYVLEDSLEMNAKGVILNAFERYRLKTCIDFKPWAGETNYISVFKGSGCWSSVGNRRVGKQELSIGANCDRIATVQHEFLHALGFWHEQSRSDRDDYVRIMWDRILSGREHNFNTYSDDISDSLNVPYDYTSVMHYSKTAFQNGTEPTIVTRISDFEDVIGQRMDFSDSDLLKLNQLYNCSSSLSFMDSCSFELENVCGMIQSSGDNADWQRVSQVPRGPESDHSNMGQCQGSGFFMHFDSSSVNVGATAVLESRTLYPKRGFQCLQFYLYNSGSESDQLNIYIREYSADNVDGNLTLVEEIKEIPTGSWQLYHVTLKVTKKFRVVFEGRKGSGASLGGLSIDDINLSETRCPHHIWHIRNFTQFIGSPNGTLYSPPFYSSKGYAFQIYLNLAHVTNAGIYFHLISGANDDQLQWPCPWQQATMTLLDQNPDIRQRMSNQRSITTDPFMTTDNGNYFWDRPSKVGTVALFSNGTQFRRGGGYGTSAFITHERLKSRDFIKGDDVYILLTVEDISHLNSTQIQLTPAPSVQDLCSKTTCKNDGVCTVRDGKAECRCQSGEDWWYMGERCEKRGSTRDTIVIAVSSTVAVFALMLIITLVSVYCTRKKYRERMSSNRPNLTPQNQHAF

binding [3]: binds
B2: meprin β CT split GFP1-10 (enzyme, UniProt Q16820 62-701)
chain: B1 chain
